This is an account of results in patent publication US20250189530A1 (STCUBE, published 2025).

The target of one test is T1, hBTN1A1-His (human, UniProt Q13410).
T1 construct: also called human BTN1A1-His
T1 sequence (antigen, looked up): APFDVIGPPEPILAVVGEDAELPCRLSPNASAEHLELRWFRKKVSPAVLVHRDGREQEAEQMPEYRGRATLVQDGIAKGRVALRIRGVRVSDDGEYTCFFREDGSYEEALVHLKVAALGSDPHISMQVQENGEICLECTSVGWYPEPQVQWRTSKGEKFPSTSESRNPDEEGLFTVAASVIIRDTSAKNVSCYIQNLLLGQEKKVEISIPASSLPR
The test can be described thus: ELISA, titration of purified antibody.

In test [1] the target is T2, Denatured hBTN1A1-His (human) (UniProt Q13410).
T2 sequence (antigen, looked up): T1 sequence (antigen, looked up)
Put plainly: ELISA, titration of purified antibody.

Residue numbers refer to the chain shown, from its start. No constants are given. Whether binding was seen depends on the method and setting. Some entries that bind do so weakly or less than the wild type. Where a sequence is shown, tags or fusion partners need not be part of it.

B1: STC43G3-1 (antibody, V domains shown)
VH: QSLEESGGRLVTPGTPLTLTCTVSGIDLSRYGVNWVRQAPGKGLEWIGYIGTTGNTYYASWVNGRFTISKTSTTVELKMTSLTAADTATYFCARSVVSPSNSSFWGQGTLVTVSS
VL: DPVMTQTPSSTSAAVGGTVTINCQSSQSVYNNNNLSWFQQKPGQPPKLLIYRASKLPSGVPPRFSGSGSGTQFTLTISSVQCDDAATYFCAGGYSGDINVFGGGTEVVVK
notes: From immunized New Zealand rabbits; IgG heavy chain and Kappa light chain; Variable domains without signal peptide; also called clone #43G3-1
With B1, the binding entry (in the test with hBTN1A1-His; in test [1]) was “binds” each time.

B2: STC85F1-1 (antibody, V domains shown)
VH: QSLEESGGRLVTPGGSLTLTCTVSGIDLSRYGVNWVRQAPGKGLEWIGYIGTTSNTYYASWAKGRFTISKTSSTTVDLKMTSLTTEDTATYFCARSVVSPSNSSFWGQGTLVTVSS
VL: B1 VL with N33K, K55T, P62S, S65K, S79D, V80L, Q81E, F89Y
notes: From immunized New Zealand rabbits; IgG heavy chain and Kappa light chain; Variable domains without signal peptide; also called clone #85F1-1
B2: the binding entry (with hBTN1A1-His; in test [1]) was “binds” each time.
